Assay results reported in article PMC3382170.
Results are given in words; binding and its absence hold for the method and conditions named. In cells and extracts the contact can be indirect. A yes stands for co-enrichment or nearness to the bait. Other partners may have been found. Each block holds one molecule with its values, some of them ahead of it.

The chains behind the UniProt entries cited, without tags or fusion partners.
UniProt Q60749: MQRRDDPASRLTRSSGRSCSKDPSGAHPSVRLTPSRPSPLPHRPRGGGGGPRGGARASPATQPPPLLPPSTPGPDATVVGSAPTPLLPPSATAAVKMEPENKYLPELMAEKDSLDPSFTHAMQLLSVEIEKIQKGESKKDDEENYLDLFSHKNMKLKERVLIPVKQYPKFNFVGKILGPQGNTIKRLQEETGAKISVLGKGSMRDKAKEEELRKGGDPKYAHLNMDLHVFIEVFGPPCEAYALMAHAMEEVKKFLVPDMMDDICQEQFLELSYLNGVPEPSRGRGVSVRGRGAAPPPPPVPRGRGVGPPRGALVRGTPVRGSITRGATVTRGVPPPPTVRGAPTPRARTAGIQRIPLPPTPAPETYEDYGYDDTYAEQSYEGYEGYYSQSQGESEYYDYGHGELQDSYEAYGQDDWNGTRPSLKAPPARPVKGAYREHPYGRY
UniProt P29341: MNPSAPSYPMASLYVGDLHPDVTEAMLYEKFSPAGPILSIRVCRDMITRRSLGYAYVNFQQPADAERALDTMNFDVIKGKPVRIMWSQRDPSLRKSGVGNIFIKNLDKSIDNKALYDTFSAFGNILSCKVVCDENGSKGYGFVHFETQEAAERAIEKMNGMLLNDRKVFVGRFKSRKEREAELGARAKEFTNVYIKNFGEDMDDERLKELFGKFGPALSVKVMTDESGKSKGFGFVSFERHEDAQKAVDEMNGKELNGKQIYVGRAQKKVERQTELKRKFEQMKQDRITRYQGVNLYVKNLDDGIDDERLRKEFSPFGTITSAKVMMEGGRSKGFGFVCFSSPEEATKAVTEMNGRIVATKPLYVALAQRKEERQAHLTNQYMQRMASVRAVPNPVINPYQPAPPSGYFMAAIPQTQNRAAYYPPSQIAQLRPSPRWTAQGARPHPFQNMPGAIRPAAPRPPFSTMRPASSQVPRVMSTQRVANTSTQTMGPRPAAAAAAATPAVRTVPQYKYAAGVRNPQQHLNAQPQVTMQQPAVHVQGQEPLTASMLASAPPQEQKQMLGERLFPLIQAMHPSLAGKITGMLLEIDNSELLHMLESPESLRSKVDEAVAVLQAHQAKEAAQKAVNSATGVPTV
UniProt P61407: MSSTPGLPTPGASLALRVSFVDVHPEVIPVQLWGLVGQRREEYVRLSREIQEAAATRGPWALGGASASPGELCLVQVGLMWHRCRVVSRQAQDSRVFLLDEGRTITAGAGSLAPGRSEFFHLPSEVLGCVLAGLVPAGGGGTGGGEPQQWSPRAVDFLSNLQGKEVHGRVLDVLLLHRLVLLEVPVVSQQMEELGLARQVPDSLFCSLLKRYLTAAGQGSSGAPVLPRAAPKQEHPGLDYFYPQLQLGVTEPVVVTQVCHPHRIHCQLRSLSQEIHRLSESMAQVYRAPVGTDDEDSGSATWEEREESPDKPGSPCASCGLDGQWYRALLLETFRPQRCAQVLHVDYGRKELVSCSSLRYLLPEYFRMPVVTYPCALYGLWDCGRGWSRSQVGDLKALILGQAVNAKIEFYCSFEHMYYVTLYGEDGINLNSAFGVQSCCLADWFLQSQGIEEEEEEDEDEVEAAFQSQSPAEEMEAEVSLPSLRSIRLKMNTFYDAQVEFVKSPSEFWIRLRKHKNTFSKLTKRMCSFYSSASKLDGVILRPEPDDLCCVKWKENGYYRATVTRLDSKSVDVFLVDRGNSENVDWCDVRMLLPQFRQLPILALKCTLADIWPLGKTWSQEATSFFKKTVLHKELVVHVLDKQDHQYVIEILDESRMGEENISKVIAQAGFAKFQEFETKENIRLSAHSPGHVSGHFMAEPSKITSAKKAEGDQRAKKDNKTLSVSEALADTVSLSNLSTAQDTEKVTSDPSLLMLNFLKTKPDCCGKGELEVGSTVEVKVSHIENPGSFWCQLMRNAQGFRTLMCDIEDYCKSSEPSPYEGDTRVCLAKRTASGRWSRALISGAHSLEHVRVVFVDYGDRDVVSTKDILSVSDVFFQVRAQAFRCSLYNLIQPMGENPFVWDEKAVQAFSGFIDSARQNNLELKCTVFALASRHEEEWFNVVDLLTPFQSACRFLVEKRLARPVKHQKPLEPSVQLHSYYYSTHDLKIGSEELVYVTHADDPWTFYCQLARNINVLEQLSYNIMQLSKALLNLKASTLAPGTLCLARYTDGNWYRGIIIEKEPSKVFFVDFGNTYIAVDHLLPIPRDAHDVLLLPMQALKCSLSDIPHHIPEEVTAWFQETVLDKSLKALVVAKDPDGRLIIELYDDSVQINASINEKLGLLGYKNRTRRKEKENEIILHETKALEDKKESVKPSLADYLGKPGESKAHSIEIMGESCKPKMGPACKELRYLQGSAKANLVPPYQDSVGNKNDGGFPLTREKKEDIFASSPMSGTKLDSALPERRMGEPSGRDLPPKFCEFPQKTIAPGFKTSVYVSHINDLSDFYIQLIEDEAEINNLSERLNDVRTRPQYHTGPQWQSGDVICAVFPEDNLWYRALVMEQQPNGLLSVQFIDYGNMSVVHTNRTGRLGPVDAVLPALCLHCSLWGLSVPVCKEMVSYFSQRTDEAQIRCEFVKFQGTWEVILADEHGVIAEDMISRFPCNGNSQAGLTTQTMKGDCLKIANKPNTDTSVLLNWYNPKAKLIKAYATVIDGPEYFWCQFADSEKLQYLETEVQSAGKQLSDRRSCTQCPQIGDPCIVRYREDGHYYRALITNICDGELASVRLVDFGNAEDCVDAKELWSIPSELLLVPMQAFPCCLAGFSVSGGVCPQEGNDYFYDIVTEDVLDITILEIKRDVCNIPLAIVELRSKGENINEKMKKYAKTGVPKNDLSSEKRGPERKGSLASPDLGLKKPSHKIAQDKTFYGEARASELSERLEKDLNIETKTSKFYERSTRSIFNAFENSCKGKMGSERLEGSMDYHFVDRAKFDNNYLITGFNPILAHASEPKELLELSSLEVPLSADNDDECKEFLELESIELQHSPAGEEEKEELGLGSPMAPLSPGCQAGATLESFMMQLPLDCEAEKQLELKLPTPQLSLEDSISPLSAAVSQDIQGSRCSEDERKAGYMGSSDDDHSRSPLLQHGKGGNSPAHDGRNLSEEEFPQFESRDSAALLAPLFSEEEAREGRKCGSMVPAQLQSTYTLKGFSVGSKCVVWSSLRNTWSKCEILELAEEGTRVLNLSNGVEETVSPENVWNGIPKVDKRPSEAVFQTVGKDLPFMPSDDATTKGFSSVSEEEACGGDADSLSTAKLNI
UniProt Q9JMB7: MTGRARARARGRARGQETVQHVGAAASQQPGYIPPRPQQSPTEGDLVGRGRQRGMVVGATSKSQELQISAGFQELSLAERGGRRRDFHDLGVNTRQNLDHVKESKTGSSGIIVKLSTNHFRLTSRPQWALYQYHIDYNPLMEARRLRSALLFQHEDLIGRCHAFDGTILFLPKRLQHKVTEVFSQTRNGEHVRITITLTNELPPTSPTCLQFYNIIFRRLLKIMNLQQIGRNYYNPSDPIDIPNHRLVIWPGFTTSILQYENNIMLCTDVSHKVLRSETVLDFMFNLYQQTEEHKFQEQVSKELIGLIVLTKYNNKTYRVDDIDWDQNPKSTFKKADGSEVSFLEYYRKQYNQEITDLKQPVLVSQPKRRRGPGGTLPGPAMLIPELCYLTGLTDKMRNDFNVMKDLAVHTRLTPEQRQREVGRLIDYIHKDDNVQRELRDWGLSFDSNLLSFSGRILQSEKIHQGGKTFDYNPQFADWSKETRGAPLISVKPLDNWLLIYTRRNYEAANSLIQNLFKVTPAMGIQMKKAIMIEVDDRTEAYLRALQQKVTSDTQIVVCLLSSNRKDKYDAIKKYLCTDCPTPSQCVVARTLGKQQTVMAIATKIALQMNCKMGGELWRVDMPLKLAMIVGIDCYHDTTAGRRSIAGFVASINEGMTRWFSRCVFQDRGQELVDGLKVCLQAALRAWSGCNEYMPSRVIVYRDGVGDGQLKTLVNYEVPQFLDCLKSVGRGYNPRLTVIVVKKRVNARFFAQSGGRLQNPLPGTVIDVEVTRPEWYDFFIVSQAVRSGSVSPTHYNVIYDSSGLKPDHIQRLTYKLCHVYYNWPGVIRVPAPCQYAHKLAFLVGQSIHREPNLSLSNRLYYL

Tests used:
[1] = biological target: T1, MVH (Mouse VASA Homologue) (mouse (endogenous in male germ cells)) (UniProt Q61496); experiment: affinity purification with mass spectrometry; chromatoid bodies isolated from Sam68 wild-type and knockout mouse testes: cells cross-linked in 0.1% PFA, lysed in RIPA buffer and sonicated, pellet fraction immunoprecipitated with anti-MVH on Dynabeads protein G overnight at 4°C (anti-ACROSIN as control); cross-links reversed; LC-MS/MS
T1 sequence: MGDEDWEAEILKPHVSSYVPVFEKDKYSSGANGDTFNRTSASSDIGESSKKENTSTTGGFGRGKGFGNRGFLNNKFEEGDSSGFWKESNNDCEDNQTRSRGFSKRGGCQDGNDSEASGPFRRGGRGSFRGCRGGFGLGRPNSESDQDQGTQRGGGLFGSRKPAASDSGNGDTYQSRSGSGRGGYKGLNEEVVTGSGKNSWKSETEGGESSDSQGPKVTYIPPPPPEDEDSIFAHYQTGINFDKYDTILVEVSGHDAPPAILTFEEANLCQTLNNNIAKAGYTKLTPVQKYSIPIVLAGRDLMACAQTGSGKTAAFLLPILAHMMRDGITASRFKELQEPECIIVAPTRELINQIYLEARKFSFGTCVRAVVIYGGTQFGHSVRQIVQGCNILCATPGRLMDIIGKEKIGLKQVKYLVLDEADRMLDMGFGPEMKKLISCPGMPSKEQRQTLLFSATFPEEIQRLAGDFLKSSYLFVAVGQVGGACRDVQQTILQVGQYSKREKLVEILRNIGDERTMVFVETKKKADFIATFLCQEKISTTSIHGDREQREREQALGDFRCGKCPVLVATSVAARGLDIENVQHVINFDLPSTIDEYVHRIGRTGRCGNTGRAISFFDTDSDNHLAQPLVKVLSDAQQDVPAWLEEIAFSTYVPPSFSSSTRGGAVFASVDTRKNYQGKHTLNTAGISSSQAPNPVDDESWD

[2] = biological target: T2, MVH (Mouse VASA Homologue) (mouse (endogenous in male germ cells)), Q61496; experiment: as above; conditions: remark: other sources report otherwise
T2 chain: T1 sequence

Molecule: SAM68 (from UniProt Q60749 1-443)
binding [1]: binds

B1: TDRD1 (protein, UniProt Q99MV1 1-1172)
chain: MMPRNNLEASTCKMAEPFNFEKKESKPPPQDPLRSPVAQHNHPTFRLKSPENGNTKNNFLLCEQNKQYLASQEDSSVVSSNPAVVNGEVGGSKGDRKPPPTGNPVSPLSLGNSSPPNQVKTKPSSNVTPEKSKKSHKLFENALSVNNPALFNSLGPPLRSTTCHRCGLFGSLRCSQCKQTYYCSTACQRRDWSSHSTICRPVQQSLNKLEDNKSPFETKAIEVKSEVDCPPGVTKEITAGAERVMFSDLRSLQLKKTMEIKGTVTEFKHPSNFYIQLYSSEVLENMNQLSTSLKETYANVVPEDGYLPVKGEVCVAKYTVDQTWNRAIVQAVDVLQRKAHVLYIDYGNEEMIPIDSVHPLSRGLDLFPPSAIKCCVSGVIPTAGEWSEGCVAAVKALLFEQFCSVKVMDILEEEVLTCAVDLVLQSSGKQLDHVLVEMGYGVKPGEQSSTEQSVDHSALEDVGRVTVESKIVTDRNALIPKVLTLNVGDEFCGVVAHIQTPEDFFCQQLQSGHKLAELQESLSEYCGHVIPRSDFYPTIGDVCCAQFSEDDQWYRASVLAYASEESVLVGYVDYGNFEILSLKRLCPIIPKLLDLPMQALNCVLAGVKPSLGIWTPEAVCVMKEMVQNRMVTVRVVGMLGTRALVELIDKSVAPHVSASKALIDSGFAIKEKDVADKGSSMHTASVPLAIEGPAEALEWTWVEFTVDETVDVVVCMMYSPGEFYCHFLKDDALEKLDDLNQSLADYCAQKPPNGFKAEIGRPCCAFFSGDGNWYRALVKEILPSGNVKVHFVDYGNVEEVTTDQLQAILPQFLLLPFQGMQCWLVDIQPPNKHWTKEATARFQACVVGLKLQARVVEITANGVGVELTDLSTPYPKIISDVLIREQLVLRCGSPQDSLMSRPANQHKQIDSHRVQASPSAEQWKTMELPVNKTIAANVLEIISPALFYAIPSEMSENQEKLCVLAAELLEHCNAQKGQPAYRPRTGDACCAKYTNDDFWYRAIVLETSESDVKVLYADYGNIETLPLSRVQPIPASHLELPFQIIRCSLEGPMELNGSCSQLVMELLRNAMLNQSVVLSVKAISKNVHAVSVEKCSENGMINIAENLVMCGLAENLTSKRKSASTKEIPHSRDCCCTELQKQIEKHEQILLFLLNNPTNQSKFTEMKKLLRS
binding [1]: binds

B2: TDRD7 (protein, UniProt Q8K1H1 1-1086)
chain: MLEADLVSKMLRAVLQSHKNGIVLPRLQGEYRSLTGDWIPFKQLGYPTLEAYLRSVPAVVRIEASRSGEIVCYAVACTETARIAQLVARQRTSKRKIGRQINCQMRVKKAMPFFLEGKPKATLRQPGFASDYSISRKPNSALLRDRGSALGVKADVDMPPYPDTPVQRHASMSANSRFSPKSSLPASFQTHISRACPTEVNDNLNQTVEKPNITPPASYTNKMDEVQNRIKEILDKHNNGIWISKLPHFYKEFYKEDLNQGVLQQFEHWPHICTVEKPCGGGQDSLLYPARREQPLKSDQDPEKELPPPPPAPKQEVPSQGSPAVMPDVKEKVAELLGKYSSGLWASALPKAFEDMYKVKFPEDALKNLASLSDVCTINYISGNTQKAILYAKLPLPTDKILKDEGQAQGDFDIKSMIEQEYLQIEKNMAESADEFLEDITVPPLVIPTEASPSVLVVELSNTNDVVIRYVGKDYSAAQELMEDEMKEFYSKNPRVTPIQTVHVGQLLAVNAEEDAWLRAQIISTDENKIKVCYVDYGFCENIEKSKAYRLNPRFCSLSFQATKCKLAGLEVLNDDPDLVKAVESLTCGKIFAVEILDKSDVPLVVLYDTSGEDDININATCLKAICDRSLQVHLQVDAMYTNVKVTNICSDGTLYCQVPCKGLNKLNDLLHKTEDYFHCKHMTSEYFISLPFCGKICLFHCKGKWLRVEITNVHSSRALDVQFLDSGNSTSVKVSELREIPPRFLQEMLAIPPQAIKCCLADLPQSIGMWTPDAVLWLRDSVLNCSDCSIKVTKMDETKGVAYVYLFTPNNFPDPHRSINRQITNADLWKHQKDVFLSAVSTAASSPGNRNGGTPAPGSPAESLRKSHPEVIKKSVLDHTSSFSLEELPPPVHLSRSGEHMDVYVPVACHPGHFVIQPWQEIHKLEVLMEEMILYYSVSEERHIAVERDQVYAAKVENKWYRVLLKGILTNGLVSVYELDYGKHELVNIRKVQPLVDVFRKLPFQAVTAQLAGVKCSQWSEEASMVFRNHVEKKALVALVQTVVEHTNPWDRKVVLYLVDTSLPDTDTWIHDFMSQYLLELSKVN
binding [1]: binds

B3: DDX25, Q9QY15 1-484 (protein)
chain: MASLLWGGDAGAAESERLNSHFSNLVHPRKNLRGIRSTTVPNIDGSLNTEDDDDDEDDVVDLAANSLLNKLIRQSLIESSHRVEVLQKDPSSPLYSVKTFEELRLKEELLKGIYAMGFNRPSKIQEMALPMMLAHPPQNLIAQSQSGTGKTAAFVLAMLSRVNALELFPQCLCLAPTYELALQTGRVVERMGKFCVDVEVMYAIRGNRIPRGTEVTKQIIIGTPGTVLDWCFKRKLIDLTKIRVFVLDEADVMIDTQGFSDQSIRIQRALPSECQMLLFSATFEDSVWQFAERIIPDPNVIKLRKEELTLNNIRQYYVLCENRKGKYQALCNIYGGITIGQAIIFCQTRRNAKWLTVEMMQDGHQVSLLSGELTVEQRASIIQRFRDGKEKVLITTNVCARGIDVKQVTIVVNFDLPVNQSEEPDYETYLHRIGRTGRFGKKGLAFNMIEVDKLPLLMKIQDHFNSNIKQLDPEDMDEIEKIEY
binding [2]: binds

B4: MAEL (protein, UniProt Q8BVN9 1-434)
chain: MPNRRASRNAYYFFVQEKIPELRRRGLPVARVADAIPYCSADWALLREDEKEKYSEMAREWRAAQGKDSGPSEKQKLVSTPLRRPGMLVPKPSISPPDMSNLSIKSDQALLGGIFYFLNIFSHGELPPHCEQRFLPCEIGCVKYSLQEGIMADFHSFIHPGEIPRGFRFHCQAASDSSHKIPISNFEFGHDQATVLQNLYKFIHPNPGNWPPIYCKSDDRARVNWCLKRMERASEIRQDLELLTVEDLVVGIYQQKFLKEPSKTWVRSLLDVAMWDYSSNTRCKWHEENDILFCALAVCKKIAYCISNSLATLFGIQLTGAHVPLQDYEASNSVTPKMVVLDAGRYQKLRVESPGFCHFNSYNQEQRSNTSTGYYPSGVKISGPHSSVRGRGITRLLESISNSSNNIHRFSSCETSLSPYTPQKDGYKPFSSFS
binding [1]: binds

More lines, now with the values ahead:

binding [1]: binds
Molecule: PABPC1 (from UniProt P29341 1-636)

binding [1]: binds
Molecule: TDRD6 (from UniProt P61407 1-2134)

binding [1]: binds
Molecule: MIWI (from UniProt Q9JMB7 1-862)
